According to doi:10.1101/2019.12.11.873422:
No constants are given. Whether binding was seen depends on the method and setting. In cells and extracts the contact can be indirect. Some results given as binding are weak or reduced against the parent protein; the word gives no strength.

Amino acid sequences for entries named in this document (tags omitted).
UniProt Q15554: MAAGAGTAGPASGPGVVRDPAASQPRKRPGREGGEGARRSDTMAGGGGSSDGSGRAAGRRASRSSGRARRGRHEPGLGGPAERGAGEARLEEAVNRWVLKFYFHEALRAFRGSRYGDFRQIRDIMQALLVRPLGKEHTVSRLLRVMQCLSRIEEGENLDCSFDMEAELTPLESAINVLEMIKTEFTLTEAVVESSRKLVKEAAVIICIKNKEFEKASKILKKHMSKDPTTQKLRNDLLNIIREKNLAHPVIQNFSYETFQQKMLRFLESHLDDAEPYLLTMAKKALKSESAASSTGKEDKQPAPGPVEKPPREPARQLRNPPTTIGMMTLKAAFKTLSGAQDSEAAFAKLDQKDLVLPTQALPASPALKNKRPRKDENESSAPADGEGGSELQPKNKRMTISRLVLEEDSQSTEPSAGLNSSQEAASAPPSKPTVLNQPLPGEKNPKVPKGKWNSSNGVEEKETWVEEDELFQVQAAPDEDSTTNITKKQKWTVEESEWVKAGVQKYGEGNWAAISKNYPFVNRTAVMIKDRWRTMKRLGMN
UniProt P13010: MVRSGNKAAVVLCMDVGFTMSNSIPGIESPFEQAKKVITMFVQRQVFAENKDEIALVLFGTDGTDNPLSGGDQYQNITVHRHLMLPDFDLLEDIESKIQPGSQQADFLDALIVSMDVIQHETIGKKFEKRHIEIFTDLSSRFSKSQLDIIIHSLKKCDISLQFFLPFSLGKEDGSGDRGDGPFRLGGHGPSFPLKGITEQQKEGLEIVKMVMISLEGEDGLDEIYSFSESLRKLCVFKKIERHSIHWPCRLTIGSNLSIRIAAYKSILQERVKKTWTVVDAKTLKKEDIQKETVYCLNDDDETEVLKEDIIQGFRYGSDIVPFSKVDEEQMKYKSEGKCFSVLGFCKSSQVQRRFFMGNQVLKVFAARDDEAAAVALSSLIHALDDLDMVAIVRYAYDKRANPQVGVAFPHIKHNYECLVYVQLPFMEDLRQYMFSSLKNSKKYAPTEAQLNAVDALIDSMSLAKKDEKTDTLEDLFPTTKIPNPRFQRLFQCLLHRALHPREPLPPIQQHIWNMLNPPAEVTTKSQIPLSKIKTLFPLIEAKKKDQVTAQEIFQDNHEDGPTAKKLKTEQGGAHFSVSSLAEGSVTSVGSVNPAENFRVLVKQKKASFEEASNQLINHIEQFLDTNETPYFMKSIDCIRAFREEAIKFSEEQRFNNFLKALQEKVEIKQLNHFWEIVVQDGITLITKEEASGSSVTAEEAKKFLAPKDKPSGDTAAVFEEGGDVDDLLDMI

Target: endogenous TRF2 (human (endogenous in Flp-In T-REx 293)) (UniProt Q15554)
Experiment: co-IP

In the case of Myc-Ku80 WT (from UniProt P13010 1-732), the binding is reported as “binds”.
